From paper PMC9512921
Positions count from the first letter of the chain named. No constants are given. Whether binding was seen depends on the method and setting. Binding seen in cells or lysates may run through a third protein. Some results given as binding are weak or reduced against the parent protein; the word gives no strength. For some of these results: Where a sequence is shown, tags or fusion partners need not be part of it. Blank lines part the entries; values can stand above or below the binder they belong to.

Experiments:
Flag-USP15 C269A = molecular target: T1, Flag-USP15 C269A (UniProt Q9Y4E8); assay: co-IP; HEK293 cells co-transfected with Myc-p66Shc (or its mutants) and Flag-USP15 (WT or C269A); IP with anti-Flag or anti-Myc antibody; western blot
T1 sequence: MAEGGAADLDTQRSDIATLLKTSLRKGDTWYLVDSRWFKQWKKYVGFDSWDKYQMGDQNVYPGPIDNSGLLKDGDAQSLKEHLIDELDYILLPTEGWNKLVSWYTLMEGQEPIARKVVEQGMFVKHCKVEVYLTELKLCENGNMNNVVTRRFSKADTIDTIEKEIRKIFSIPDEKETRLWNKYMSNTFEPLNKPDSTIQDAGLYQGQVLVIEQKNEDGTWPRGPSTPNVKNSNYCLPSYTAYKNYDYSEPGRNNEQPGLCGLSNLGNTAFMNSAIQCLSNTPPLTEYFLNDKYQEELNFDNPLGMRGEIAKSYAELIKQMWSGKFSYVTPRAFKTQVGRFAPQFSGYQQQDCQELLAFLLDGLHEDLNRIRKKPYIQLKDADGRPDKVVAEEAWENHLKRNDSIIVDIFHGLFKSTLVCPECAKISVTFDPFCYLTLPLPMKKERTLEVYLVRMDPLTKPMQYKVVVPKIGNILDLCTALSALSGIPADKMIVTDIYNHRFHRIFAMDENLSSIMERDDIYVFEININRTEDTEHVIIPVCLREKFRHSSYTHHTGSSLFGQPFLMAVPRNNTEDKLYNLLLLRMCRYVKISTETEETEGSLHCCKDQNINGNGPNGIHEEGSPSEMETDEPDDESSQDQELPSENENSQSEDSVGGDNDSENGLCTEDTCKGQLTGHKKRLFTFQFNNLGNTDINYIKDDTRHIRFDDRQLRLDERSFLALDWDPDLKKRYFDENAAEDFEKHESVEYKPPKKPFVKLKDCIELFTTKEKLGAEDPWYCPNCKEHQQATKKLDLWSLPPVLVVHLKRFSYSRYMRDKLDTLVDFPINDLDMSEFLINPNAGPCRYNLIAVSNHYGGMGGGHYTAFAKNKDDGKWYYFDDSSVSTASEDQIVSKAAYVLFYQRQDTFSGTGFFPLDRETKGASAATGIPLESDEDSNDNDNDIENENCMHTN

Flag-USP15 WT = molecular target: T2, Flag-USP15 WT (UniProt Q9Y4E8); assay: as above
T2 sequence: T1 sequence with A269C

[1] = molecular target: T3, p66Shc (66 kDa isoform of ShcA), endogenous (mouse (endogenous in mouse liver and AML12)) (UniProt P98083); assay: co-IP; endogenous proteins from AML12 cells (exposed to H/R); antibody on Protein A/G magnetic beads, room temperature 1 h; western blot
T3 sequence: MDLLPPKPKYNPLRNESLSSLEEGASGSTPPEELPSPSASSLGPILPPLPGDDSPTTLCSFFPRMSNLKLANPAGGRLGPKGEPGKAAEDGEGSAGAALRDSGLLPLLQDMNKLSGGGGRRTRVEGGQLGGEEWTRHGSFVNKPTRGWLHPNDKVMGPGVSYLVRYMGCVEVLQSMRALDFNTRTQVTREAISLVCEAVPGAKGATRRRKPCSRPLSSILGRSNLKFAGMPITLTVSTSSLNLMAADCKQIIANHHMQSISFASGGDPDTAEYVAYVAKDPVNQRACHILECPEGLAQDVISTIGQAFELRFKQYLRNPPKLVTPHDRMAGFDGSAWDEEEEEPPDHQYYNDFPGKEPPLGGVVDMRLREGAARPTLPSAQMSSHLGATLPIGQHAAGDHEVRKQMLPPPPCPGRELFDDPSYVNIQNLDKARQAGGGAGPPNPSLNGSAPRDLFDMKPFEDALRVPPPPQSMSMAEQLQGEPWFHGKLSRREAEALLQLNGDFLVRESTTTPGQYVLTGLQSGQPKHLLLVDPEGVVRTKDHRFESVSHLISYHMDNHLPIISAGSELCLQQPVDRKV

[2] = molecular target: T3, p66Shc (66 kDa isoform of ShcA), endogenous (mouse (endogenous in mouse liver and AML12)); assay: co-IP; endogenous proteins from livers of mice (also exposed to I/R); antibody on Protein A/G magnetic beads, room temperature 1 h; western blot

binding (Flag-USP15 C269A): binds
binding (Flag-USP15 WT): binds
B1: Myc-p66Shc (protein, UniProt P29353-1 1-583)
chain: MDLLPPKPKYNPLRNESLSSLEEGASGSTPPEELPSPSASSLGPILPPLPGDDSPTTLCSFFPRMSNLRLANPAGGRPGSKGEPGRAADDGEGIVGAAMPDSGPLPLLQDMNKLSGGGGRRTRVEGGQLGGEEWTRHGSFVNKPTRGWLHPNDKVMGPGVSYLVRYMGCVEVLQSMRALDFNTRTQVTREAISLVCEAVPGAKGATRRRKPCSRPLSSILGRSNLKFAGMPITLTVSTSSLNLMAADCKQIIANHHMQSISFASGGDPDTAEYVAYVAKDPVNQRACHILECPEGLAQDVISTIGQAFELRFKQYLRNPPKLVTPHDRMAGFDGSAWDEEEEEPPDHQYYNDFPGKEPPLGGVVDMRLREGAAPGAARPTAPNAQTPSHLGATLPVGQPVGGDPEVRKQMPPPPPCPGRELFDDPSYVNVQNLDKARQAVGGAGPPNPAINGSAPRDLFDMKPFEDALRVPPPPQSVSMAEQLRGEPWFHGKLSRREAEALLQLNGDFLVRESTTTPGQYVLTGLQSGQPKHLLLVDPEGVVRTKDHRFESVSHLISYHMDNHLPIISAGSELCLQQPVERKL

binding [1]: binds
binding [2]: binds
B2: ubiquitin-specific protease 15 (USP15), endogenous (enzyme, UniProt Q8R5H1 1-981)
chain: MAEGGAADLDTQRSDIATLLKTSLRKGDTWYLVDSRWFKQWKKYVGFDSWDKYQMGDQNVYPGPIDNSGLLKDGDAQSLKEHLIDELDYILLPTEGWNKLVSWYTLMEGQEPIARKVVEQGMFVKHCKVEVYLTELKLCENGNMNNVVTRRFSKADTIDTIEKEIRKIFNIPDEKEARLWNKYMSNTFEPLNKPDSTIQDAGLYQGQVLVIEQKNEDGTWPRGPSTPKSPGASNFSTLPKISPSSLSNNYNNINNRNVKNSNYCLPSYTAYKNYDYSEPGRNNEQPGLCGLSNLGNTCFMNSAIQCLSNTPPLTEYFLNDKYQEELNFDNPLGMRGEIAKSYAELIKQMWSGKFSYVTPRAFKTQVGRFAPQFSGYQQQDCQELLAFLLDGLHEDLNRIRKKPYIQLKDADGRPDKVVAEEAWENHLKRNDSIIVDIFHGLFKSTLVCPECAKISVTFDPFCYLTLPLPMKKERSLEVYLVRMDPLAKPMQYKVIVPKIGNILDLCTALSALSGVPADKMIVTDIYNHRFHRIFAVDENLSSIMERDDIYVFEININRAEDTEHVVIPVCLREKFRHSSYTHHTGSSLFGQPFLMAIPRNNTEDKLYNLLLLRMCRYVKMSTETEETDGHLRCCEDQNINGNGPNGLHEEGSPSEMETDEPDDESSQDQELPSENENSQSEDSVGGDNDSENGLCTEETCKGQLTGHKKRLFTFQFNNLGNNDINYIKDDTSHIRFDDRQLRLDERSFLALDWDPDLKKRYFDENAAEDFEKHESVEYKPPKRPFVKLKDCIELFTTKEKLGAEDPWYCPNCKEHQQATKKLDLWSLPPVLVVHLKRFSYSRYMRDKLDTLVDFPISDLDMSEFLINPNAGPCRYNLIAVSNHYGGMGGGHYTAFAKNKDDGKWYYFDDSSVSTASEDQIVSKAAYVLFYQRQDTFSGTGFFPLDRETKGASAATGIPLESDEDSNDNDNDLENENCMHTN
